According to article PMC12431861:
Results are given in words; binding and its absence hold for the method and conditions named. In cells and extracts the contact can be indirect. These calls come from enrichment with a bait or labelling near it, and not all partners need be listed.

Biological target: T1, CCCTC-binding factor (CTCF), immunoprecipitated from ES and NS cell chromatin in ChIP-SICAP (mouse (endogenous in ES and NS cells)), Q61164
T1 chain: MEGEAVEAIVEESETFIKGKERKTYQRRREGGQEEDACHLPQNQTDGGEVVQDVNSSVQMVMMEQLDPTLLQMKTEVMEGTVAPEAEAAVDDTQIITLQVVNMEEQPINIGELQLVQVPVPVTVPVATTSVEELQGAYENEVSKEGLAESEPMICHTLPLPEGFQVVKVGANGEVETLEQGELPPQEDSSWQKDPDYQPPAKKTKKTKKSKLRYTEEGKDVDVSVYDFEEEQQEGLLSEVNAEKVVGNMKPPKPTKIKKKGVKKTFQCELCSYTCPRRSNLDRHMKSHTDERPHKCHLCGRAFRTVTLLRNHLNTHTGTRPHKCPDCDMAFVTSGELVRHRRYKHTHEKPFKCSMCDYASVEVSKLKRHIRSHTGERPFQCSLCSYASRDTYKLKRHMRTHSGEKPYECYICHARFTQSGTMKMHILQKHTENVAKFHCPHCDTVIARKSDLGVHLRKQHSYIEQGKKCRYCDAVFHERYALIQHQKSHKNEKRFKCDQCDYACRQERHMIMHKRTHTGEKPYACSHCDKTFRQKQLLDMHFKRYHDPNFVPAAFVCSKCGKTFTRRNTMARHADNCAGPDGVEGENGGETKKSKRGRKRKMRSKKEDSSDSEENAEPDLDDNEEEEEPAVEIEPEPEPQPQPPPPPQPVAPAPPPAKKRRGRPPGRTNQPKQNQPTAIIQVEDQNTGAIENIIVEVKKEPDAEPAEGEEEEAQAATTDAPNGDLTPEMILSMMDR
Assay: affinity purification with mass spectrometry; ChIP-SICAP: ES and NS cells fixed with 1.5% formaldehyde, chromatin sonicated, immunoprecipitated with anti-CTCF (D31H2), DNA biotinylated by TdT, eluted and recaptured on streptavidin beads, on-bead digestion, Orbitrap MS; abundances normalised to CTCF
Conditions: remark: other sources report otherwise

B1: Pds5b, Q4VA53 1-1446 (protein)
chain: MAHSKTRTNDGKITYPPGVKEISDKISKEEMVRRLKMVVKTFMDMDQDSEEEKELYLNLALHLASDFFLKHPDKDVRLLVACCLADIFRIYAPEAPYTSPDKLKDIFMFITRQLKGLEDTKSPQFNRYFYLLENIAWVKSYNICFELEDSNEIFTQLYRTLFSVINNGHNQKVHMHMVDLMSSIICEGDTVSQELLDTVLVNLVPAHKNLNKQAYDLAKALLKRTAQAIEPYITNFFNQVLMLGKTSISDLSEHVFDLILELYNIDSHLLLSVLPQLEFKLKSNDNEERLQVVKLLAKMFGAKDSELASQNKPLWQCYLGRFNDIHVPIRLECVKFASHCLMNHPDLAKDLTEYLKVRSHDPEEAIRHDVIVSIVTAAKKDILLVNDHLLNFVRERTLDKRWRVRKEAMMGLAQIYKKYSLQSAAGKDAAKQISWVKDKLLHIYYQNSIDDRLLVERIFAQYMVPHNLETTERMKCLYYLYATLDLNAVKALNEMWKCQNLLRHQVKDLLDLIKQPKTDASVKAIFSKVMVITRNLPDPGKAQDFMKKFTQVLEDDEKIRKQLEALVSPTCSCKQAEGCVREITKKLGNPKQPTNPFLEMIKFLLERIAPVHIDTESISALIKQVNKSIDGTADDEDEGVPTDQAIRAGLELLKVLSFTHPISFHSAETFESLLACLKMDDEKVAEAALQIFKNTGSKIEEDFPHIRSALLPVLHHKSKKGPPRQAKYAIHCIHAIFSSKETQFAQIFEPLHKSLDPSNLEHLITPLVTIGHIALLAPDQFAAPLKSLVATFIVKDLLMNDRLPGKKTTKLWVPDEEVSPETMVKIQAIKMMVRWLLGMKNNHSKSGTSTLRLLTTILHSDGDLTEQGKISKPDMSRLRLAAGSAIVKLAQEPCYHEIITLEQYQLCALAINDECYQVRQVFAQKLHKGLSRLRLPLEYMAICALCAKDPVKERRAHARQCLVKNITVRREYLKQHAAVSEKLLSLLPEYVVPYTIHLLAHDPDYVKVQDIEQLKDVKECLWFVLEILMAKNENNSHAFIRKMVENIKQTKDAQGPDDTKMNEKLYTVCDVAMNIIMSKSTTYSLESPKDPVLPARFFTQPDKNFSNTKNYLPPEMKSFFTPGKPKTANVLGAVNKPLSSAGKQSQTKSSRMETVSNASSSSNPSSPGRIKGRLDSSEMDHSENEDYTMSSPLPGKKSDKREDPDLSELEKPRSRKKAPVTDPEEKLGMDDLTKLVQEQKPKGSQRGRKRGRTASDSDEQQWPEEKRHKEELLENEDEQNSPPKKGKRGRPPKPLGGGTSKEEPTMKTSKKGNKKKLVPPVVDDDEEEERQIGNTEHKSKSKQHRTSKRAQQRAESPETSAVESTQSTPQKGRGRPSKAPSPSQPPKKIRVGRSKQVATKENDSSEEMDVLQASSPVSDDTTQEGAEEEDISVGNVRRRSSKRERR
- binding: binds
